Assay results as given in PMC7196669.
These are yes or no findings as the source states them, for the method shown. In cells and extracts the contact can be indirect. Some binding calls cover weakened binding; strength is not graded here.

By UniProt entry, the sequences of proteins in these tests, tags left out.
UniProt Q15077: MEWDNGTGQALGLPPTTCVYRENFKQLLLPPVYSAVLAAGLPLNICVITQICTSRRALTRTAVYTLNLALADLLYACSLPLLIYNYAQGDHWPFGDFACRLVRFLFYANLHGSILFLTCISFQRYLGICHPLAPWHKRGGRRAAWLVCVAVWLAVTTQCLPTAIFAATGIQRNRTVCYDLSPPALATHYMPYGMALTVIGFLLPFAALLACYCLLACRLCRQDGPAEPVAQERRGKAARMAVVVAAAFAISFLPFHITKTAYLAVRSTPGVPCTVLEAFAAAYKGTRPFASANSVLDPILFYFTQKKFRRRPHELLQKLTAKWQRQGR
UniProt Q8IUC6: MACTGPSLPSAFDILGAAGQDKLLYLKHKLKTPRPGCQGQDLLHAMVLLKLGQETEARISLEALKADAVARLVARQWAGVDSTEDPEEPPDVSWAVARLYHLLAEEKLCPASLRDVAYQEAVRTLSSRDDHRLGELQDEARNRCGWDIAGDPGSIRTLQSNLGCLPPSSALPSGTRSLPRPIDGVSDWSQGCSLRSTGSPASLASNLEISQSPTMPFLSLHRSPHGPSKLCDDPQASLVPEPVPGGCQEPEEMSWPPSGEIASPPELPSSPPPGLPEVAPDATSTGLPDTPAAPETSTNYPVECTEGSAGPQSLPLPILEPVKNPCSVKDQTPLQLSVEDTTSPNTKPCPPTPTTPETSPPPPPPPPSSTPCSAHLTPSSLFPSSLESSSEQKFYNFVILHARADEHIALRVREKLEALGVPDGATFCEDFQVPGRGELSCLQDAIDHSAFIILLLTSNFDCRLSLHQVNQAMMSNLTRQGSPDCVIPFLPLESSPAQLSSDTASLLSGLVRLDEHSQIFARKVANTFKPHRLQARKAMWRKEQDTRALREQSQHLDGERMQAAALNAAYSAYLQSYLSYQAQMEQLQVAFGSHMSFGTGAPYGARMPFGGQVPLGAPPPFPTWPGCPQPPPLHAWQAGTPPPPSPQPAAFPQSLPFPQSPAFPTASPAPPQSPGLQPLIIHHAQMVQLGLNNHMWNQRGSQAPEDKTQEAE
UniProt P32121: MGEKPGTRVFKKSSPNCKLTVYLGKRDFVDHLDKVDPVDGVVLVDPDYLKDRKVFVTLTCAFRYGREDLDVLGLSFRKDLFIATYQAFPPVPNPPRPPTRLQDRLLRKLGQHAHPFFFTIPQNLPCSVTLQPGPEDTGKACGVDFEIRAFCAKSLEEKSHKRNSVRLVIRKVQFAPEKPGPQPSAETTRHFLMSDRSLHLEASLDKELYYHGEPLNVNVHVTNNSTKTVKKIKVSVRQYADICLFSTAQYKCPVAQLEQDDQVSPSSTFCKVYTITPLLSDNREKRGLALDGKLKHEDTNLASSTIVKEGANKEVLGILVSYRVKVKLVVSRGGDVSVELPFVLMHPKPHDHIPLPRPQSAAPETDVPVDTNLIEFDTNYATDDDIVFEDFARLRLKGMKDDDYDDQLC

Target: P2Y6 purinergic receptor (human (endogenous in THP-1)) (UniProt Q15077)
Test: co-IP; THP-1 lysates (25 mM Tris-HCl, 150 mM NaCl, 1 mM EDTA, 1% NP-40, 5% glycerol) incubated with P2Y6 receptor antibody 16 h at 4°C, then protein G-agarose 6 h at 4°C; precipitate read by western blot; cells pre-treated with 100 μg/ml PLAG or DMSO for 1 h, then 200 μg/ml MSU crystals for 0, 7, 15, 30, 60 min

Question: “TIR-domain-containing adapter-inducing interferon-β (from UniProt Q8IUC6 1-712)” was tested. Which binding did it give?
Answer: binds

Question: “β-arrestin 2 (from UniProt P32121 1-409)” was tested. Which binding did it give?
Answer: binds
